Data published in PubChem BioAssay AID602313 (National Center for Advancing Translational Sciences (NCATS), 2012).
The whole screen tested about 390,000 compounds, of which about 760 (0.19%) were called active. Inconclusive results, whose numbers are uncertain, are shown with a selection of clear calls. Calls come from the whole dose curve; as a rule, active = well fitted inhibition curve with a large enough effect; inconclusive = small, poorly fitted or top-dose-only effect; inactive = flat fitted curve, though single readings scatter. Potencies beside an inconclusive call are fits to weak or partial responses and may not hold up.

Experiment: qHTS for Inhibitors of Vif-A3F Interactions: qHTS; note: nearly all actives have a fitted effect of over 65% in size; for activity, negative = active: % of control where 0% means no effect
Settings: HeLa A3F-eYFP + Vif (tagged APOBEC3F with the HIV-1 protein that degrades it), YFP fluorescence increase; series mostly up to 46.1 µM; activity, negative = active: at the top concentration
How it was run: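 HeLa cells stably expressing A3F-eYFP plus Vif, plated and incubated overnight at 37 deg C, then exposed to compounds overnight at 37 deg C. Blocked degradation read as raised yellow fluorescence (Ex 488/Em 500-530).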
Potency is the fitted concentration of half-maximal effect.

Compound	Potency	activity, negative = active
Oc1ccc2ccccc2c1/C=C/c1ccc2c(Br)cc(Br)c(O)c2n1	inconclusive: 20 µM [inhibitor, single point]	–
Cc1occc1C(=O)NCc1ccccc1F	–	inactive: -7.23%
Cc1c(Cl)cccc1NC(=O)Cn1c(CCC(=O)O)ccc1-c1ccc(Cl)cc1	inconclusive: 3.98 µM [inhibitor, single point]	–
CCCCC(=O)Nc1ccccc1N1CCOCC1	inconclusive: 22.4 µM [inhibitor, single point]	–
COc1ccc(/C=C2\CC/C(=C\c3ccc(OC)cc3OC)C2=O)c(OC)c1	active: 8.91 µM	–
COc1cccc(NC(=O)CN(C)C(=O)c2ccc(-c3ccc(Cl)cc3)o2)c1	inconclusive: 17.8 µM [inhibitor, single point]	–
O=C1C(=Cc2cccn2-c2ccc(O)cc2)C(=O)c2ccccc21	inconclusive: 20 µM [inhibitor, partial curve, poor fit]	–
COc1ccc2c(c1)N(C)/C(=C/c1cccc[n+]1C)S2	inconclusive: 20 µM [inhibitor, partial curve, poor fit]	–
O=C1Nc2ccc(Br)cc2C12NNc1ccccc1O2 (configuration not stated)	inconclusive: 17.8 µM [inhibitor, partial curve, poor fit]	–
CCCC(c1nnnn1Cc1ccc(F)cc1)N1CCN(CC)CC1 (configuration not stated)	inconclusive: 3.16 µM [inhibitor, partial curve, poor fit]	–
O=C(O)C12CC3CC(C1)CC(n1ncc(NCc4ccccc4)c(Cl)c1=O)(C3)C2	inconclusive: 1.78 µM [inhibitor, partial curve, poor fit]	–
COc1cccc(CNC(=O)CN(C)S(=O)(=O)c2ccc(Br)s2)c1	inconclusive: 2.82 µM [inhibitor, single point]	–
c1ccc2c(c1)nc(NCC1CCCO1)c1nnnn12 (configuration not stated)	inconclusive: 3.16 µM [inhibitor, full curve, poor fit]	–
CCCCn1c(=N)n(CCOc2ccc(C)cc2)c2ccccc21	–	inactive: 2.58%
CCN(c1ccccc1)c1nnc(NC(=O)Nc2ccc(Br)c(C)c2)s1	–	inactive: 0.436%
Cc1cc(C)cc(N(C(=O)c2sc(C)nc2C)C(C(=O)NCc2ccco2)c2ccccc2)c1 (configuration not stated)	–	inactive: -0.264%
CCCCCNC(=O)c1ccc2c(c1)ncn2-c1ccc(OC)cc1	inconclusive: 3.55 µM [inhibitor, partial curve, poor fit]	–
Cc1ccc(-c2cc(C(=O)Nc3ccccc3C)c3ccccc3n2)o1	–	inactive: 1.02%
Cc1ccc(-c2cc(-c3ccccc3O)nc(N/N=C/c3cccnc3)n2)cc1	inconclusive: 35.5 µM [inhibitor, single point]	–
CC(=O)c1sc(N/N=C\c2ccccc2O)nc1C	inconclusive: 17.8 µM [inhibitor, partial curve, poor fit]	–
Cc1ccc(OCC(=O)N/N=C\c2ccc(C)o2)c([N+](=O)[O-])c1	inconclusive: 4.47 µM [inhibitor, partial curve, poor fit]	–
Cc1nc(C)c(CCNC(=O)c2ccccc2Br)s1	inconclusive: 12.6 µM [inhibitor, single point]	–
COc1ccccc1/C=C/C=C1\Oc2c(ccc(O)c2CN(C)C)C1=O	inconclusive: 22.4 µM [inhibitor, single point]	–

Compound	Potency	activity, negative = active
O=C1NC(=Nc2ccc(O)cc2)S/C1=C/c1ccco1	–	inactive: -0.61%
N#CC(C#N)=C1C=C2C=C(N3CCOCC3)CCC2CC1 (configuration not stated)	active: 11.2 µM	–
NS(=O)(=O)c1ccc(-n2ncc3c(=O)[nH]c(SCC(=O)Nc4nccs4)nc32)cc1	inconclusive: 35.5 µM [inhibitor, single point]	–
O=C(CCN1C(=O)/C(=C/c2cccs2)SC1=S)Nc1ccccn1	inconclusive: 35.5 µM [inhibitor, single point]	–
O=C(NP(=O)(N1CCOCC1)N1CCOCC1)C1=C(N2CCOCC2)/C(=C\c2ccccc2)CC1	inconclusive: 22.4 µM [inhibitor, single point]	–
CN(C)c1ccc(Nc2nc3ccccc3n3nnnc23)cc1	inconclusive: 12.6 µM [inhibitor, partial curve]	–
CN(C)c1cccc2c(C=C(C#N)C#N)ccc(N(C)C)c12	inconclusive: 15.8 µM [inhibitor, single point]	–
Cc1c(Cl)cccc1Nc1nn2c(=O)c3ccc(C(=O)NCCC4=CCCCC4)cc3nc2s1	inconclusive: 5.62 µM [inhibitor, single point]	–
CCOC(=O)C1(CCOc2ccccc2)CCN(CC=C(C)C)CC1	inconclusive: 6.31 µM [inhibitor, single point]	–
O=C(C[n+]1cc(Br)cc2ccccc21)c1ccccc1	inconclusive: 31.6 µM [inhibitor, single point]	–
COc1ccccc1CNc1ccc(-c2nc(C)no2)cc1[N+](=O)[O-]	inconclusive: 11.2 µM [inhibitor, partial curve, poor fit]	–
C=CCN1C(=O)c2ccc(C(=O)N(CC(C)C)c3c(N)n(CCCC)c(=O)[nH]c3=O)cc2C1=O	inconclusive: 20 µM [inhibitor, single point]	–
COc1cc(OC)c(NC(=O)CCCn2nc(C)c3sc4ccccc4c3c2=O)cc1Cl	–	inactive: 6.69%
O=C(NNC(=S)NC(=O)c1ccc(F)cc1)c1ccncc1	inconclusive: 22.4 µM [inhibitor, single point]	–
CCOc1ccc(CN(C(=O)c2oc3cc(C)ccc3c2C)C2CCS(=O)(=O)C2)cc1 (configuration not stated)	–	inactive: -15.8%
CCOc1ccc(NC(=O)N2CC=C(c3c[nH]c4ccccc34)CC2)cc1	active: 28.2 µM	–
COc1cccc(OCCCn2cc(/C=C3/C(=N)N4C=C(C)SC4=NC3=O)c3ccccc32)c1	–	inactive: 0.244%
COC(=O)c1nn(-c2ccc(Cl)cc2)c(=O)cc1Sc1ccccn1	inconclusive: 6.31 µM [inhibitor, single point]	–
Cc1ccccc1C(=O)c1cccn1CC(=O)O	inconclusive: 3.16 µM [inhibitor, single point]	–
C/C(=N/NC(=S)Nc1cccc(C)c1)c1cccc([N+](=O)[O-])c1	inconclusive: 1.58 µM [inhibitor, partial curve, poor fit]	–
Cc1ccc(S(=O)(=O)Nc2ccc3c(c2)n(C)c(=O)n3C)cc1	–	inactive: -5.16%
NNC(=O)c1cc(-c2ccc(O)cc2)nc2ccc(Br)cc12	inconclusive: 1.78 µM [inhibitor, partial curve, poor fit]	–
CCC(C)N(C(=O)CSc1nc2ccc(OC)cc2[nH]1)C1CCS(=O)(=O)C1 (configuration not stated)	inconclusive: 3.98 µM [inhibitor, single point]	–

Single records (already shown).
CCOc1ccc(CN(C(=O)c2oc3cc(C)ccc3c2C)C2CCS(=O)(=O)C2)cc1 (configuration not stated) as listed: activity, negative = active: inactive: -15.8%
COc1ccc2c(c1)N(C)/C(=C/c1cccc[n+]1C)S2 as listed: Potency: inconclusive: 20 µM [inhibitor, partial curve, poor fit]
C/C(=N/NC(=S)Nc1cccc(C)c1)c1cccc([N+](=O)[O-])c1 as listed: Potency: inconclusive: 1.58 µM [inhibitor, partial curve, poor fit]
CCC(C)N(C(=O)CSc1nc2ccc(OC)cc2[nH]1)C1CCS(=O)(=O)C1 (configuration not stated) as listed: Potency: inconclusive: 3.98 µM [inhibitor, single point]

The listing continues:

Compound	Potency	activity, negative = active
CC(=O)c1ccc(Nc2nc(-c3sc(C)nc3C)cs2)cc1	inconclusive: 22.4 µM [inhibitor, single point]	–
COC(=O)[C@]1(Cc2ccccc2)N[C@H](c2ccc(-c3cccc(Cl)c3)cc2)[C@@H]2C(=O)N(C)C(=O)[C@@H]21	–	inactive: 1.57%
ClCC1=Nc2ccccc2Cc2ccccc21	inconclusive: 11.2 µM [inhibitor, single point]	–
CCCN(C(=O)CSc1nc2cc(S(=O)(=O)N(CC)CC)ccc2o1)C1CCS(=O)(=O)C1 (configuration not stated)	inconclusive: 2.51 µM [inhibitor, full curve, poor fit]	–
O=S1(=O)CCN(Cc2ccccc2C(F)(F)F)CC1	–	inactive: 18.6%
COc1ccc(NC(=O)c2ccccc2[N+](=O)[O-])cc1	inconclusive: 35.5 µM [inhibitor, single point]	–
CN(C)CCCN(C(=O)c1ccc(S(=O)(=O)N(C)Cc2ccccc2)cc1)c1nc2c(F)cccc2s1	inconclusive: 28.2 µM [inhibitor, single point]	–
CCC1S/C(=N/N=C/c2ccco2)N(c2ccc(F)cc2)C1=O (configuration not stated)	inconclusive: 0.562 µM [inhibitor, full curve, poor fit]	–
COc1ccnc(CSC(N)=Nc2cccc(C(F)(F)F)c2)c1	inconclusive: 6.31 µM [inhibitor, single point]	–
CC(=O)C1=C(C)NC(SCC(=O)c2ccc(Cl)cc2Cl)=C(C#N)C1c1ccco1 (configuration not stated)	–	inactive: -16.2%
Cc1oc2c(c(C)cc3oc(=O)c(CC(=O)N[C@H](C(=O)O)C(C)C)c(C)c32)c1C	inconclusive: 11.2 µM [inhibitor, partial curve]	–
CCOC(=O)c1ccc(NC(=O)c2c(NCc3cccs3)sc3c2CCCCC3)cc1	inconclusive: 17.8 µM [inhibitor, partial curve, poor fit]	–
O=C(N=c1ccn(-c2nc3ccccc3nc2NS(=O)(=O)c2ccccc2)cc1)c1ccccc1Cl	active: 7.08 µM	–
COc1ccc(C(=O)CC(=O)C(=O)Nc2ccc(OC)c(Cl)c2)cc1	inconclusive: 6.31 µM [inhibitor, single point]	–
Cc1ccc(-c2cn3c(n2)sc2cc(C(=O)NCCCN4CCCCC4)ccc23)cc1	inconclusive: 6.31 µM [inhibitor, single point]	–
O=C1NC(c2cccc3ccccc23)Nc2ccccc21 (configuration not stated)	–	inactive: 7.55%
Clc1ccccc1OCCN1CCC(Cc2ccccc2)CC1	inconclusive: 1.12 µM [inhibitor, full curve, poor fit]	–
COc1ccc(CCNC(=O)COC(=O)c2cnc(C)cn2)cc1	–	inactive: -6.26%
CCCN1C(=O)/C(=C\C=C2\N(CC)c3ccccc3C2(C)C)SC1=S	active: 3.55 µM	–
COc1ccc(OC)c(S(=O)(=O)N2CCC(C(=O)NCc3ccccn3)CC2)c1	inconclusive: 22.4 µM [inhibitor, single point]	–
CCOc1cc(C(=O)CCC(=O)OCC(=O)NC(=O)NCC(C)C)ccc1O	inconclusive: 6.31 µM [inhibitor, partial curve, poor fit]	–
